Measurements: doi:10.1101/2022.09.09.507385 (bioRxiv, 2022)
These are yes or no findings as the source states them, for the method shown. Some entries that bind do so weakly or less than the wild type.

Protein sequences, listed by entry. Tags and fused reporters are not part of them.
UniProt Q96RD7, whole entry: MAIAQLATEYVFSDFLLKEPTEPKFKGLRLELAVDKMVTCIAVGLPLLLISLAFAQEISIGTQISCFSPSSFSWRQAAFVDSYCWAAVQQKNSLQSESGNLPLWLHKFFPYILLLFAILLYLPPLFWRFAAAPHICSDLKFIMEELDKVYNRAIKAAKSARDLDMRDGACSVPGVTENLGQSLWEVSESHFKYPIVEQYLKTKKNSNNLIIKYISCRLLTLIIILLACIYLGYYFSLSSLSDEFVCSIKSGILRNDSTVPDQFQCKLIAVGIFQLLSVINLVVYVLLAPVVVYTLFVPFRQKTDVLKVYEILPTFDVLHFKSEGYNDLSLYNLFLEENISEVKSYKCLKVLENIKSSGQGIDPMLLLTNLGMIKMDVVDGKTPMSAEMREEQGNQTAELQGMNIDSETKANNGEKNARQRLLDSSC

Molecular target: human Pannexin1 wild type with C-terminal eGFP and 8x His-tag (FSEC sample) (human) (UniProt Q96RD7)
Assay: SEC

With “human Pannexin1 wild type with C-terminal eGFP and 8x His-tag (FSEC sample) (from UniProt Q96RD7)” the binding was “binds”.
